According to article doi:10.1101/2025.11.26.690709:
No constants are given. Whether binding was seen depends on the method and setting. Some results given as binding are weak or reduced against the parent protein; the word gives no strength. Tags and fused reporters may be left off the sequences shown.

Target: T1, CHIP K30A, recombinant, C-terminal His tag (human), Q9UNE7
T1 chain: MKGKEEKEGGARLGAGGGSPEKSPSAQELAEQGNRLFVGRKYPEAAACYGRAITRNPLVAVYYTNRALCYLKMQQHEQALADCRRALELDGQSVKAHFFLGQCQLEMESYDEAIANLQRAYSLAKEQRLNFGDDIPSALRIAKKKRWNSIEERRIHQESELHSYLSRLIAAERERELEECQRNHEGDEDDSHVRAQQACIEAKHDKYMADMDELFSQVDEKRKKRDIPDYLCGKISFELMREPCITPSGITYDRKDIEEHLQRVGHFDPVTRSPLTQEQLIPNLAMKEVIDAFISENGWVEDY
Assay: mass photometry
Conditions: remark: other sources report otherwise

B1: CHIP K30A, recombinant, C-terminal His tag, Q9UNE7-1 1-303 (protein)
chain: MKGKEEKEGGARLGAGGGSPEKSPSAQELAEQGNRLFVGRKYPEAAACYGRAITRNPLVAVYYTNRALCYLKMQQHEQALADCRRALELDGQSVKAHFFLGQCQLEMESYDEAIANLQRAYSLAKEQRLNFGDDIPSALRIAKKKRWNSIEERRIHQESELHSYLSRLIAAERERELEECQRNHEGDEDDSHVRAQQACIEAKHDKYMADMDELFSQVDEKRKKRDIPDYLCGKISFELMREPCITPSGITYDRKDIEEHLQRVGHFDPVTRSPLTQEQLIPNLAMKEVIDAFISENGWVEDY
binding: binds
